# This is one part of the list. Most entries show no effect beyond the scatter of the controls.
# Sequences of proteins named here, by UniProt entry; tags and fusion partners are left off. A change or cut given only in a name is not applied to a line headed by its entry.
# UniProt P11663: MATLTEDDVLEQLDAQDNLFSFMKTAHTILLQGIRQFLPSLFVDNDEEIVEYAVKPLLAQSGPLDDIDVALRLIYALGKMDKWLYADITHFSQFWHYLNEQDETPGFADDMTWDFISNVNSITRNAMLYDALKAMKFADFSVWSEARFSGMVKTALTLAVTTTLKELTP
# UniProt P24169, whole entry: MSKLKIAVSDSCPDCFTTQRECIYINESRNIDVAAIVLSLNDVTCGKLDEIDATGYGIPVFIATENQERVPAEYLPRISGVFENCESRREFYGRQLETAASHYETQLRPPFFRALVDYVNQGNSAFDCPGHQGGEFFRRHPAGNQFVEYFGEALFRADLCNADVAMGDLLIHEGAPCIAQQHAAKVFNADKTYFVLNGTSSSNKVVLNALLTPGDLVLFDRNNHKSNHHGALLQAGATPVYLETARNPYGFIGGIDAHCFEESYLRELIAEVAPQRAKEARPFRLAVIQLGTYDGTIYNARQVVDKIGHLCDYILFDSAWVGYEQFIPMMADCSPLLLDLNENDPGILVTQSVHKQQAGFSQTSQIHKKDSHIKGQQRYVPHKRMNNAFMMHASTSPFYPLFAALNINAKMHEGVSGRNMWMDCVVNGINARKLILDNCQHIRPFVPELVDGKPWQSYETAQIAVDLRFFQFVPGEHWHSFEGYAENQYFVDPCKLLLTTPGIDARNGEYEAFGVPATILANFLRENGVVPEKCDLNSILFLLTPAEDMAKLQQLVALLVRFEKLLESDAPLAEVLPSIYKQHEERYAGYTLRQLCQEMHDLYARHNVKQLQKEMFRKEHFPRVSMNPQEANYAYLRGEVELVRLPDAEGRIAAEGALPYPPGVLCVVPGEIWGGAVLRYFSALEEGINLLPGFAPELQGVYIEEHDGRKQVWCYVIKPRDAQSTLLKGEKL
# UniProt P23837: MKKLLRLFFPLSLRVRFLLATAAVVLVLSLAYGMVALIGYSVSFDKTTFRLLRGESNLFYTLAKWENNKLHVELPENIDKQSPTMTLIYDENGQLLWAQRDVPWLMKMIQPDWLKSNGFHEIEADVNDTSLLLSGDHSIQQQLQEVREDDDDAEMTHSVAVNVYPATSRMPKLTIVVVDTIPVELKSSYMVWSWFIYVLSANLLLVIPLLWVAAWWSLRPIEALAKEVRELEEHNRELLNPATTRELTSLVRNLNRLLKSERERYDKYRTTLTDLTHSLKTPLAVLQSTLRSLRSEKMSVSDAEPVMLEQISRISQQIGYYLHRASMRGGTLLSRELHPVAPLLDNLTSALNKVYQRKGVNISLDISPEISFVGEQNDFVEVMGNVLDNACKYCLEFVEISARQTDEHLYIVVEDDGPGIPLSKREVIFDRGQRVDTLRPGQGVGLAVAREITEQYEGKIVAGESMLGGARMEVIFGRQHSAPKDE
# UniProt P10902: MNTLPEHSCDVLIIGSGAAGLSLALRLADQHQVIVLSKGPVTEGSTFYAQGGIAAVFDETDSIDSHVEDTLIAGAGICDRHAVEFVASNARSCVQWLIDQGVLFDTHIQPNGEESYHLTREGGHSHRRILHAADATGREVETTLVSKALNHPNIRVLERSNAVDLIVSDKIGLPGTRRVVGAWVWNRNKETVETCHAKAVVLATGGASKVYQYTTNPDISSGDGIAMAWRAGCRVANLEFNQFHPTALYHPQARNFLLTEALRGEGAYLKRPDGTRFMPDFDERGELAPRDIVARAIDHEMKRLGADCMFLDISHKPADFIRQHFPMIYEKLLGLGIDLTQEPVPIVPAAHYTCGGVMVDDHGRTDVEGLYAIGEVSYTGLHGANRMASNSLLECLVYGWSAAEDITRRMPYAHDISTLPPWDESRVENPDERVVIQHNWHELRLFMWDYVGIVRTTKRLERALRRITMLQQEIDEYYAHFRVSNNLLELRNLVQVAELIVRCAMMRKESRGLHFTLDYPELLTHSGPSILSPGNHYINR
# UniProt P15082: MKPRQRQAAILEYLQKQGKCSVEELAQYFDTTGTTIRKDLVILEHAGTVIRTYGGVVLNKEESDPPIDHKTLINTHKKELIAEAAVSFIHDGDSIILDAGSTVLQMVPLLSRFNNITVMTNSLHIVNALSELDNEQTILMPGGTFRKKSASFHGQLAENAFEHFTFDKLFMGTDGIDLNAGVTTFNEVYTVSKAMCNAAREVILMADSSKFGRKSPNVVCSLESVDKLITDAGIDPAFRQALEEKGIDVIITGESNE
# UniProt P23538: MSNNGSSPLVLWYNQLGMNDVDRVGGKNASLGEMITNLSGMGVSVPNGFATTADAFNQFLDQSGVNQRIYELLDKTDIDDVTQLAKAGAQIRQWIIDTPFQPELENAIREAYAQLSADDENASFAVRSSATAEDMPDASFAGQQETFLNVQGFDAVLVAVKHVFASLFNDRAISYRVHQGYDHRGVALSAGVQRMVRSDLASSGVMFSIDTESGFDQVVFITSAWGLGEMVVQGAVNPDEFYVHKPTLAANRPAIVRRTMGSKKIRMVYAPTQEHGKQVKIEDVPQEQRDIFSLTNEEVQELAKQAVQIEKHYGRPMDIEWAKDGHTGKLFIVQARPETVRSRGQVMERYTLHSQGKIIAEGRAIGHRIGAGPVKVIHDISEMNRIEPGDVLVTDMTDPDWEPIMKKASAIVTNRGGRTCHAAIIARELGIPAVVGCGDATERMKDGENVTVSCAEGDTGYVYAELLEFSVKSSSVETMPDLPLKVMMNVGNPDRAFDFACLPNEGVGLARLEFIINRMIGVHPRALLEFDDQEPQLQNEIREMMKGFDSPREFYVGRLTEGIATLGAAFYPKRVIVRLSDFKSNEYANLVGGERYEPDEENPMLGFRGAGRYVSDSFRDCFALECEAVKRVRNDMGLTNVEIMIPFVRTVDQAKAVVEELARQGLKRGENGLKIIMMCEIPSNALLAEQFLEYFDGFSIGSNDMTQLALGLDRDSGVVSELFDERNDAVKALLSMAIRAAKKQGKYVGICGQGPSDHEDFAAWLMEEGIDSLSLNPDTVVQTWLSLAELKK
# UniProt P19934: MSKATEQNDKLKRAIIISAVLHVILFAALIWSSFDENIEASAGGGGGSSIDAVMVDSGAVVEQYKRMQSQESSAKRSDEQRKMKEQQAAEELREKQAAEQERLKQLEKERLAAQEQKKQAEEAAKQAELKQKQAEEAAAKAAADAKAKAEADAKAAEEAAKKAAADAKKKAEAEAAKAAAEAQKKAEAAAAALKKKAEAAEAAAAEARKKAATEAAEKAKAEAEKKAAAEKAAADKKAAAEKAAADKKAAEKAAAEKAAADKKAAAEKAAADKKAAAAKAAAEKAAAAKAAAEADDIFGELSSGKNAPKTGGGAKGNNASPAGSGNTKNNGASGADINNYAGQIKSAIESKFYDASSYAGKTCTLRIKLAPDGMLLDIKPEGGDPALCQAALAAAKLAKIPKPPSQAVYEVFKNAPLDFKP
# UniProt P11454: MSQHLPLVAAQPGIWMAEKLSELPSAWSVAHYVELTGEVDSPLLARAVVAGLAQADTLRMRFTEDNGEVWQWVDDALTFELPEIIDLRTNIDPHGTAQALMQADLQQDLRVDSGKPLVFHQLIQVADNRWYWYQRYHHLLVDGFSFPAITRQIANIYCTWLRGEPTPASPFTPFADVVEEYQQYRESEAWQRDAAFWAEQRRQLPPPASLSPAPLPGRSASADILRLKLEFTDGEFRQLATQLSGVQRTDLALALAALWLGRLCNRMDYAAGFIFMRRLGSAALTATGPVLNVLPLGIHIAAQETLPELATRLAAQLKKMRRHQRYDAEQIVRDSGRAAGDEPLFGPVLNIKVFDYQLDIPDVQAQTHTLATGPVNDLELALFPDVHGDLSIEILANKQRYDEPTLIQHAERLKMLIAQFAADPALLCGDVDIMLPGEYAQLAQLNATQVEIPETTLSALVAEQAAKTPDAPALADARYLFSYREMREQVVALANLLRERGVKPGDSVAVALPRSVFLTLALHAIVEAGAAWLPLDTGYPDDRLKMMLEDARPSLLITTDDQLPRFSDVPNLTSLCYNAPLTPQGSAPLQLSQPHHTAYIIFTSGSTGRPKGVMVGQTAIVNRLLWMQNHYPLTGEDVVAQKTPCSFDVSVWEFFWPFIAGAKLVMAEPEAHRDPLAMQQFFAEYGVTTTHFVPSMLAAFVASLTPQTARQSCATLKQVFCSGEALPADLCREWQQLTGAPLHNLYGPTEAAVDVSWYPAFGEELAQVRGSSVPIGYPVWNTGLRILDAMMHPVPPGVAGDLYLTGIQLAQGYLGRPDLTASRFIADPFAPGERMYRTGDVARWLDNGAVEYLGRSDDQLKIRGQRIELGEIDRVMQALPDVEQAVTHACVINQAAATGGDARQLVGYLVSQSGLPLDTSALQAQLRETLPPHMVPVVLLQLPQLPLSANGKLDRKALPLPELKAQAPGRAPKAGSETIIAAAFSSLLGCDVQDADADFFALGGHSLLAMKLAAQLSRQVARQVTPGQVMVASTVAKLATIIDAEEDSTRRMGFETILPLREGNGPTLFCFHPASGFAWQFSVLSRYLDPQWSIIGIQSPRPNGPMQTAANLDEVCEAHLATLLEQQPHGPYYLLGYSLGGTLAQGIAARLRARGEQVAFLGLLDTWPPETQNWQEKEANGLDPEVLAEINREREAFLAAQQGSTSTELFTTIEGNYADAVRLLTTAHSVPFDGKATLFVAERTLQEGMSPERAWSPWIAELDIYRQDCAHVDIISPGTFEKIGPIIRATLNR
# UniProt P22731: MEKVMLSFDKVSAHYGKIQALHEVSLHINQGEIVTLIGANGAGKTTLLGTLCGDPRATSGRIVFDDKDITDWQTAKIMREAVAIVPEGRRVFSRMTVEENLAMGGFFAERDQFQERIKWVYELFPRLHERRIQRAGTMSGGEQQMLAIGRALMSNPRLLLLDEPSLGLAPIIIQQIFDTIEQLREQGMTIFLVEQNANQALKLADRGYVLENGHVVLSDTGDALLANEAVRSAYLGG
# UniProt P19642: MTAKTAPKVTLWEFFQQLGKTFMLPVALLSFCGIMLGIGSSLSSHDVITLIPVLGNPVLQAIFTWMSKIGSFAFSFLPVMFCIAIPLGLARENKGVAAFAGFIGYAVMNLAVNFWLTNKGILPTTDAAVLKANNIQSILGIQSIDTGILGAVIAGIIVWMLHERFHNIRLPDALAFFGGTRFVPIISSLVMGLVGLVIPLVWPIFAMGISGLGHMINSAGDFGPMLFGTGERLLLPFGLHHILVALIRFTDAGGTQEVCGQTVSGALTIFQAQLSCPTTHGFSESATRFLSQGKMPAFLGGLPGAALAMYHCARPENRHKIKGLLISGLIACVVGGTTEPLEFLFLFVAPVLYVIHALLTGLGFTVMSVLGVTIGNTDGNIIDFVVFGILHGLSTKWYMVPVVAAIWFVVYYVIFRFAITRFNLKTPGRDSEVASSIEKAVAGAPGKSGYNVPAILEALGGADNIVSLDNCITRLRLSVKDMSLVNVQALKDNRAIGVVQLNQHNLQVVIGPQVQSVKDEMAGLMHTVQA
# UniProt P0DP90: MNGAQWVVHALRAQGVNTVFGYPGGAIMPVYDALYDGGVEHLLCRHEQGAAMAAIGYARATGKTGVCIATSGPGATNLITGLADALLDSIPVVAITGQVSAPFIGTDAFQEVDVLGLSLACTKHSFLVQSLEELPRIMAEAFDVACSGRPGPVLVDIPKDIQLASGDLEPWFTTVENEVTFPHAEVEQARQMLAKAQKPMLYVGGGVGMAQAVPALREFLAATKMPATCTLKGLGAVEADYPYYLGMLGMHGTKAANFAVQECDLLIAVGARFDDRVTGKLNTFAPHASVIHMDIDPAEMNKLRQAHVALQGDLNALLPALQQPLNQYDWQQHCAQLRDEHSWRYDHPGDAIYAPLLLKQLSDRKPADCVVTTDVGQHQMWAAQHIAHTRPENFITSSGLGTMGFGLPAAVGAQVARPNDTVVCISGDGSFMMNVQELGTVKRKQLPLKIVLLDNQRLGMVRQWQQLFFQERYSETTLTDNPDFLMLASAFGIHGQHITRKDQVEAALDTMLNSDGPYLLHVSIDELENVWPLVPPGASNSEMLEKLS
# UniProt P16700: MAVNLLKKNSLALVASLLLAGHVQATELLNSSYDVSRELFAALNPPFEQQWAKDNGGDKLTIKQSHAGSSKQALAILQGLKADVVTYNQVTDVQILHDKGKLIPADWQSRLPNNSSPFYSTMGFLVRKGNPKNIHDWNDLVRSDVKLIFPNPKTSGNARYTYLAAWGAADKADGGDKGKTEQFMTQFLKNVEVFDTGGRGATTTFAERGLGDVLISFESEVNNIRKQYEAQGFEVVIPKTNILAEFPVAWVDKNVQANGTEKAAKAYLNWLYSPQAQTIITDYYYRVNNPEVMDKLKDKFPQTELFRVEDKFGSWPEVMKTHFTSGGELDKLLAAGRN
# UniProt P10371: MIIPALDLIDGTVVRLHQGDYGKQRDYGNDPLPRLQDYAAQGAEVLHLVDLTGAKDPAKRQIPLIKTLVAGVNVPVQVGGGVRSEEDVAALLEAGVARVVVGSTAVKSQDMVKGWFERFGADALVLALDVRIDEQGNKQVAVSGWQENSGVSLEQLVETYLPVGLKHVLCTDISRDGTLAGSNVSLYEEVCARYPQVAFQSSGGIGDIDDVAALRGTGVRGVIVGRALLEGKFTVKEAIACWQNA
# Compound: CC1(C)S[C@@H]2[C@H](NC(=O)[C@H](N)c3ccccc3)C(=O)N2[C@H]1C(=O)O [ampicillin]
# Experiment: log2 fold change of tryptic peptide abundance, ligand vs vehicle (limited proteolysis) (log2 ratio); higher = more trypsin-susceptible (destabilized)
# Details: ligand concentration: 10 uM; sample: E. coli crude lysate
row,Target,log2 fold change
1,"UniProt P11663 (peptide sequence: NAMLYDALK, peptide start residue: 125)",-0.015
2,"UniProt P15070 (peptide sequence: ITDIITPSER, peptide start residue: 122)",-0.031
3,"UniProt P21345 (peptide sequence: EVLGKFDK, peptide start residue: 426)",-0.0326
4,"UniProt P23721 (peptide sequence: YGVIYAGAQK, peptide start residue: 189)",0.182
5,"UniProt P21829 (peptide sequence: FALTHDDLPQLQHFGK, peptide start residue: 158)",0.0709
6,"UniProt P24169 (peptide sequence: MHEGVSGR, peptide start residue: 411)",0.36
7,"UniProt P23837 (peptide sequence: QHSAPKDE, peptide start residue: 479)",0.26
8,"UniProt P10902 (peptide sequence: AVVLATGGASK, peptide start residue: 199)",-0.161
9,"UniProt P15082 (peptide sequence: EESDPPIDHK, peptide start residue: 61)",0.166
10,"UniProt P13000 (peptide sequence: NSDALALQR, peptide start residue: 53)",-0.0808
11,"UniProt P23538 (peptide sequence: DSGVVSELFDER, peptide start residue: 715)",0.251
12,"UniProt P16916 (peptide sequence: GELAVVYDR, peptide start residue: 320)",0.133
13,"UniProt P19934 (peptide sequence: KMKEQQAAEELR, peptide start residue: 82)",-0.549
14,"UniProt P11454 (peptide sequence: VDSGKPLVFHQLIQVADNR, peptide start residue: 111)",0.699
15,"UniProt P0CB62 (peptide sequence: LAMPSGNQEPR, peptide start residue: 3)",0.0374
16,"UniProt P22731 (peptide sequence: TTLLGTLCGDPRATSGR, peptide start residue: 45)",-0.307
17,"UniProt P10151 (peptide sequence: AFQLFGSVR, peptide start residue: 82)",-0.742

row,Target,log2 fold change
1,"UniProt P0AGH1 (peptide sequence: YRDNSEPLVSLETR, peptide start residue: 151)",0.111
2,"UniProt P23305 (peptide sequence: LFPDRWR, peptide start residue: 125)",-0.561
3,"UniProt P13016 (peptide sequence: KTDPGPAFDWAR, peptide start residue: 162)",-0.335
4,"UniProt P10423 (peptide sequence: NTPTEYGIR, peptide start residue: 160)",0.243
5,"UniProt P10378 (peptide sequence: SCAYLVVKEPLR, peptide start residue: 474)",-0.0728
6,"UniProt P23841 (peptide sequence: ENPNVDVLFR, peptide start residue: 122)",0.504
7,"UniProt P22939 (peptide sequence: HVPLDALER, peptide start residue: 168)",0.104
8,"UniProt P16691 (peptide sequence: EGYEQSHFR, peptide start residue: 131)",-0.073
9,"UniProt P19642 (peptide sequence: DMSLVNVQALKDNR, peptide start residue: 481)",0.204
10,"UniProt P0DP90 (peptide sequence: LNTFAPHASVIHMDIDPAEMNK, peptide start residue: 281)",0.33
11,"UniProt P21514 (peptide sequence: ECLNLVNKLGNDKIK, peptide start residue: 214)",0.388
12,"UniProt P21507 (peptide sequence: MLDMGFAQDIEHIAGETR, peptide start residue: 162)",0.162
13,"UniProt P16700 (peptide sequence: THFTSGGELDKLLAAGRN, peptide start residue: 321)",0.428
14,"UniProt P14175 (peptide sequence: GQVLIDGVDIAK, peptide start residue: 83)",-0.244
15,"UniProt P10371 (peptide sequence: HVLCTDISR, peptide start residue: 167)",0.339
16,"UniProt P11289 (peptide sequence: GYAEGQKK, peptide start residue: 66)",0.616
17,"UniProt P18390 (peptide sequence: QKLASVTDAENIKNQVLEK, peptide start residue: 85)",-0.16

# Quoted from the results shown for reference:
row,Target,log2 fold change
4,"UniProt P23721 (peptide sequence: YGVIYAGAQK, peptide start residue: 189)",0.182
5,"UniProt P21829 (peptide sequence: FALTHDDLPQLQHFGK, peptide start residue: 158)",0.0709
6,"UniProt P24169 (peptide sequence: MHEGVSGR, peptide start residue: 411)",0.36
7,"UniProt P23837 (peptide sequence: QHSAPKDE, peptide start residue: 479)",0.26
8,"UniProt P10902 (peptide sequence: AVVLATGGASK, peptide start residue: 199)",-0.161
9,"UniProt P15082 (peptide sequence: EESDPPIDHK, peptide start residue: 61)",0.166
10,"UniProt P13000 (peptide sequence: NSDALALQR, peptide start residue: 53)",-0.0808
